# Source: PubChem BioAssay AID662 (National Center for Advancing Translational Sciences (NCATS), 2007)
# Where “and” joins values, the source holds several entries; their conditions need not be identical. Equal values may be shown once. This is one part of the list. Shown are side measurements of this screen, not its main read-out; they come without a call. Compounds called inactive in the main read-out are mostly missing here. The note in brackets gives the kind of curve behind each potency; many fits are weak.
# Assay: Cell signaling CRE-BLA (Fsk stim)
# Settings: CHO CRE-bla reporter (cAMP response element driving beta-lactamase), forskolin EC10, beta-lactamase ratio; measured here: 460 nm blue channel
# Procedure, shortened: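 The 460nm/530nm emission ratio after CCF4 loading defined %Activity, from which AC50 values were obtained. CRE-bla CHO cells received compound dilution series together with an EC10 level of NKH 477 for 3 hours at 37 degrees Celsius.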
row,Structure (SMILES),AC50
1,CSc1nsc(SC)c1NC(=O)OCc1ccccc1,"0.00398 µM [falling, full curve, poor fit]"
2,CCCn1c(C)nc2c(Nc3ccccc3)nc(C)nc21,"10 µM [rising, partial curve]"
3,O=c1[nH]c(CSc2nnc(-c3ccncc3)n2Cc2ccco2)nc2ccccc12,"12.6 µM [rising, single point]"
4,C=CCN1C(=O)/C(=C2/Sc3ccccc3N2C)SC1=Nc1c(C)n[nH]c1C,"1.58 µM [rising, full curve]"
5,COc1ccccc1CNc1ccnc(-c2ccc(C(=O)N(C)C)cc2)n1,"6.31 µM [rising, partial curve]"
6,C=CCn1c(N)c(C(=O)NCC2CCCO2)c2nc3ccccc3nc21 (configuration not stated),"10 µM [rising, partial curve]"
7,CCc1ccc(N2CC(C(=O)Nc3cc(C)ccc3F)CC2=O)cc1 (configuration not stated),"0.398 µM [rising, partial curve]"
8,NC(=O)CSC1=Nc2ccccc2C2=NC(CCC(=O)NCc3ccc(F)cc3)C(=O)N12 (configuration not stated),"0.00316 µM [falling, full curve, poor fit]"
9,CC(=O)N1CCc2cc(S(=O)(=O)CCC(=O)Nc3c(C)n(C)n(-c4ccccc4)c3=O)ccc21,"0.1 µM [falling, single point]"
10,O=C(CN1CCN(c2nc(-c3ccc(F)cc3)cs2)CC1)NCc1ccc2c(c1)OCO2,"0.794 µM [falling, partial curve]"
11,CCOC(=O)c1cccnc1SCc1cc(=O)n2ccccc2n1,"7.94 µM [rising, partial curve]"
12,CCCC(C)C(=O)Nc1nnc(C)s1 (configuration not stated),"1 µM [rising, partial curve, poor fit]"
13,COc1ccc(CCNC(=O)c2cc(-c3ccccc3O)n[nH]2)cc1OC,"0.00316 µM [rising, full curve]"
14,O=C(CN1CCOCCOCCN(CC(=O)Nc2ccccc2)CCOCC1)Nc1ccccc1,"31.6 µM [falling, partial curve]"
15,CCc1c(C)n2nc(C)cc2[nH]c1=O,"0.1 µM [falling, single point]"
16,CCOC(=O)Nc1nc(-c2ccccc2)c(C)s1,"2.51 µM [falling, single point]"
17,Cc1oc2nc(SCC(=O)NCc3cccnc3)nc(N)c2c1C,"12.6 µM [rising, partial curve]"
18,c1csc(CNc2ncnc3ccc(-c4ccoc4)cc23)c1,"0.398 µM [falling, full curve, poor fit]"
19,O=C(NCC1CCCO1)C1c2ccccc2C(=O)N1Cc1ccc2c(c1)OCO2 (configuration not stated),"0.0631 µM [falling, full curve, poor fit]"
20,C=CCOc1ccc(/C(CC)=N/O)c(OC)c1,"10 µM [rising, partial curve]"
21,C=C(CO)[C@H]1Cc2c(ccc3c2O[C@H]2COc4cc(OC)c(OC)cc4[C@@H]2C3=O)O1,"20 µM [falling, partial curve, poor fit]"
22,CC(=O)c1ccc2c3c(cccc13)C(=O)N(c1c(C)nn(C)c1C)C2=O,"15.8 µM [rising, single point]"
23,Cc1cccc(OCC(O)Cn2c(-n3nc(C)cc3C)nc3c2c(=O)[nH]c(=O)n3C)c1 (configuration not stated),"12.6 µM [rising, partial curve]"

row,Structure (SMILES),AC50
1,CC(Nc1ncnc2nc[nH]c12)c1ccccc1 (configuration not stated),"10 µM [rising, single point]"
2,CCc1cc2cc(C(=O)N3CCN(Cc4ccccc4)CC3)sc2s1,"25.1 µM [falling, single point]"
3,CCC1C(C#N)=C(N)OC2=C1C(=O)CC(C)(C)C2 (configuration not stated),"0.398 µM [falling, full curve]"
4,C=CCn1c(=O)[nH]c2cc(C(=O)N3CCN(c4cc(C)ccc4C)CC3)ccc2c1=O,"0.794 µM [falling, full curve]"
5,Cc1cc(C)n(-c2nnc(C)n2/N=C/c2ccccc2OCc2ccccc2Cl)n1,"0.631 µM [rising, full curve]"
6,COc1ccc(NC(=O)CC2Sc3ncnn3C2=O)cc1 (configuration not stated),"10 µM [falling, single point]"
7,O=C1c2ccccc2C(Nc2ccccc2F)N1c1cccnc1 (configuration not stated),"12.6 µM [rising, partial curve]"
8,O=S(=O)(c1cccc(-c2nc3n(n2)Cc2ccccc2-3)c1)N1CCCC1,"2.51 µM [rising, full curve]"
9,CCc1c(C)nc(Nc2nc(C)c3cc(OC)ccc3n2)[nH]c1=O,"0.631 µM [rising, full curve, poor fit]"
10,COC(=O)c1sc(NC(=O)Cc2cccs2)nc1C,"15.8 µM [rising, single point]"
11,COc1ccc(Cl)cc1-n1c(C)cc(C(=O)O)c1C,"0.1 µM [falling, full curve]"
12,Cc1cccc2cc(COC(=O)C(C)C)c(=O)[nH]c12,"5.01 µM [falling, full curve]"
13,CCCn1cnc2c1c(=O)n(CCCCC(C)=O)c(=O)n2C,"25.1 µM [rising, single point]"
14,COc1ccc(-n2nnnc2SCC(=O)c2ccc(OC)c(OC)c2)cc1,"12.6 µM [rising, single point]"
15,COCCn1c(=N)c(C(=O)NCCc2ccccc2)cc2c(=O)n3cccc(C)c3nc21,"12.6 µM [rising, partial curve]"
16,O=C(Cn1c(=O)n(Cc2ccco2)c(=O)c2ccccc21)NCC1CCCO1 (configuration not stated),"0.0794 µM [falling, partial curve]"
17,O=C(Nc1nc(-c2ccncc2)cs1)C1COc2ccccc2O1 (configuration not stated),"10 µM [rising, partial curve]"
18,COc1cc2ccccc2cc1C(=O)Nc1ccc(N2CCN(C)CC2)cc1,"10 µM [rising, single point]"
19,COc1ncc2nc(-c3cccs3)c(=O)n(C)c2n1,"3.16 µM [rising, full curve]"
20,Cc1onc(-c2c(Cl)cccc2Cl)c1C(=O)N1CCc2ccccc21,"15.8 µM [falling, single point]"
21,O=C(CN1C(=O)C2C3C=CC(C3)C2C1=O)N1CC(=O)N(CCc2ccccc2)C(=O)C1 (configuration not stated),"2.51 µM [falling, single point]"
22,Cn1c(=O)c2c(nc(N3CCc4ccccc4C3)n2Cc2ccccc2F)n(C)c1=O,"3.98 µM [rising, partial curve]"
23,CC(C)c1ccc(NC(=O)CSc2nnc(-c3ccccn3)n2C)cc1,"0.0631 µM [rising, single point]"

row,Structure (SMILES),AC50
1,CC1(C)CC(CCNC(=O)c2ccc(-n3cnnn3)cc2)CC(C)(C)N1,"1.58 µM [falling, full curve, poor fit]"
2,CCn1nc(C(=O)Nc2ccc(S(=O)(=O)Nc3nccs3)cc2)c2ccccc2c1=O,"3.16 µM [rising, single point]"
3,O=C(c1ccc2c(c1)OCO2)n1nnc2ccccc21,"10 µM [falling, partial curve]"
4,COc1ccccc1-c1cc(NCc2cccc(C)c2)ncn1,"6.31 µM [rising, partial curve, poor fit]"
5,Cc1cc2ccccc2n1CCNC(=O)c1cccs1,"15.8 µM [falling, partial curve]"
6,CN1CCc2c(sc3nc(SCC(N)=O)n(-c4ccccc4)c(=O)c23)C1,"20 µM [rising, single point]"
7,Cc1ccc(S(=O)(=O)c2cc3c(=O)n4cc(C)ccc4nc3n(CC3CCCO3)c2=N)cc1 (configuration not stated),"12.6 µM [rising, partial curve]"
8,COc1ccc(Cc2nnc(NC(=O)c3c(-c4ccccc4)noc3C)s2)cc1OC,"12.6 µM [rising, partial curve]"
9,Cc1nc2ccccc2c2oc(C(=O)N3CCN(C(=O)c4ccco4)CC3)cc12,"12.6 µM [rising, partial curve]"
10,O=S(=O)(c1ccc2c(c1)OCCO2)N1CCC(c2nc3ccccc3s2)CC1,"0.251 µM [falling, partial curve]"
11,COc1ccc2cc3c(N)c(C(=O)N4CCCC4)sc3nc2c1,"15.8 µM [rising, single point]"
12,CC(C)(CO)Cc1cc(C(C)(C)C)c(O)c(C(C)(C)C)c1,"31.6 µM [falling, single point]"
13,O=C(O)CN(CCN(CC(=O)O)CC(=O)O)CCN(CC(=O)O)CC(=O)O,"12.6 µM [rising, partial curve] and 12.6 µM [rising, single point]"
14,O=C(CN1CCC(n2nnc3cc(F)ccc32)CC1)Nc1ccccc1N1CCOCC1,"10 µM [rising, single point]"
15,Cc1c(C(=O)OC2CCCCC2)sc2nc[nH]c(=O)c12,"3.98 µM [rising, partial curve]"
16,COc1ccccc1N1CCN(Cc2nc3ccccc3c(=O)n2CC(C)=O)CC1,"2.51 µM [rising, single point]"
17,CC(C)(C)NS(=O)(=O)c1cccc(S(=O)(=O)c2cccc(S(=O)(=O)NC(C)(C)C)c2)c1,"25.1 µM [rising, single point]"
18,Cc1ccccc1-n1c(SCc2cc(=O)n3ccccc3n2)nc2[nH]ncc2c1=O,"3.16 µM [rising, full curve]"
19,Cc1cc(C)c(C#N)c(SCS(=O)Cc2ccc(Cl)cc2)n1 (configuration not stated),"10 µM [rising, partial curve]"
20,COC(=O)c1ccc(C2/C(=C(/O)c3ccc(OC)cc3)C(=O)C(=O)N2CC2CCCO2)cc1 (configuration not stated),"0.00316 µM [rising, full curve, poor fit]"
21,O=C(CCCC1=NS(=O)(=O)c2ccccc2N1)N1CCN(c2ccc(Cl)cc2)CC1,"25.1 µM [falling, single point]"

# An excerpt taken from the entries so far:
row,Structure (SMILES),AC50
5,Cc1cc2ccccc2n1CCNC(=O)c1cccs1,"15.8 µM [falling, partial curve]"
6,CN1CCc2c(sc3nc(SCC(N)=O)n(-c4ccccc4)c(=O)c23)C1,"20 µM [rising, single point]"
7,Cc1ccc(S(=O)(=O)c2cc3c(=O)n4cc(C)ccc4nc3n(CC3CCCO3)c2=N)cc1 (configuration not stated),"12.6 µM [rising, partial curve]"
